# Source: the supplement of paper PMC5407854, “Inhibitor of ppGalNAc-T3-mediated O-glycosylation blocks cancer cell invasiveness and lowers FGF23 levels” (eLife, 2017)
# The full ranking holds about 1,700 compounds; the median of “T2 sensor activation Q score (MG/GFP ratio z-score vs DMSO controls)” is about 0.3, and the highest 2% start at about 1.9. Some of the results follow.
# Test system: ppGalNAc-T2 sensor
# Test: T2 sensor activation Q score (MG/GFP ratio z-score vs DMSO controls) (SD units); higher = more sensor activation (inhibition of ppGalNAc-T2 glycosylation)
# Conditions: HEK293 sensor cells; 10 µM; 6 h
# Description: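 Cells were treated with compound at 10 uM for 6 h, then MG/GFP ratio was read by flow cytometry (10,000 cells per well, duplicate wells). Q = (R - R_neg)/SD_neg relative to DMSO vehicle controls; the signal rises when the glycosyltransferase is inhibited.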
row,Compound,T2 sensor activation Q score
1,CC1=NCC(C)c2ccccc21 (stereo not drawn),3.25
2,O=c1cc(-c2ccccc2)nc2cc(-c3ccco3)[nH]n12,0.8
3,CC(=O)Nc1ccc(OCCOc2ccc([N+](=O)[O-])cc2)cc1,1.15
4,CCN1CCC(Nc2ccnc3cc(Cl)ccc23)CC1,-1.75
5,COc1cccc2nc3cc(C)c(C)cc3nc12,1.9
6,Nc1ccc(SCc2nc3cccc4c3n2CCC4)cc1,0.35
7,COc1cc(C(=O)c2cocc2C(=O)c2ccc3c(c2)OCO3)cc(OC)c1OC,1.05
8,COc1cc2oc3cc(C)oc(=O)c3c2cc1OC,0.55
9,CCOC(=O)C1CC(C)=C(C)CC1C(=O)O (stereo not drawn),0.65
10,CC(=O)Nc1cccc(-n2c(=O)n(C3CC3)c(=O)c3c(Nc4ccc(I)cc4F)n(C)c(=O)c(C)c32)c1,0.4
11,O=C(Nc1ccsn1)c1ccc(Cl)cc1Cl,1.25
12,CCC(CO)Nc1nc2ccc(Cl)cc2c2ccccc12 (stereo not drawn),0.65
13,CCCCC(=O)N(CCC)CCC,0.6
14,NC(N)=NS(=O)(=O)c1ccc(N=C2C(=O)Nc3ccccc32)cc1,1.9
15,Oc1cccc2cnccc12,0.9
16,Cc1cc(=O)n2c3c(c4c(cc13)c(CN(C)C)cc(=O)n4C)OC2,1.3
17,CCOC(=O)/C=C/c1ccc(C(=O)OCC)[nH]1,-1.8
18,COc1cc(C(O)c2nc3ccccc3s2)cc(OC)c1OC (stereo not drawn),-0.5
19,O=C1CCCC1C(=O)Nc1ccc2ccccc2c1 (stereo not drawn),-0.15
20,Cc1c(-c2ccccc2)n(O)[n+]([O-])c1-c1ccccc1,0.85
21,CSc1cccc(NC(=O)Nc2ccccc2C(N)=O)c1,1.25

# For convenience, part of the list above:
row,Compound,T2 sensor activation Q score
10,CC(=O)Nc1cccc(-n2c(=O)n(C3CC3)c(=O)c3c(Nc4ccc(I)cc4F)n(C)c(=O)c(C)c32)c1,0.4
11,O=C(Nc1ccsn1)c1ccc(Cl)cc1Cl,1.25
12,CCC(CO)Nc1nc2ccc(Cl)cc2c2ccccc12 (stereo not drawn),0.65
13,CCCCC(=O)N(CCC)CCC,0.6

# (list continues)

row,Compound,T2 sensor activation Q score
1,Clc1nc2nc3n(c2nc1Cl)CCC3,-1.55
2,CN(C)CC1C2CCC(C2)C1O (stereo not drawn),-1.55
3,N#C/C(=C\c1cccnc1)c1ccc(Br)cc1,0.15
4,COC(=O)C1(C)Cc2cc(OC(C)=O)c(OC(C)=O)cc2N1 (stereo not drawn),-1.5
5,CN1CCN(C(=O)/C=C/c2ccc([N+](=O)[O-])o2)CC1,1.05
6,CC(=O)Nc1ccc(OC(=O)Oc2ccc(NC(C)=O)cc2)cc1,1.2
7,N=C1CCC(=N)c2c1c(O)c1ccccc1c2O,-1
8,Cc1ccc(Nc2ccc(N)cc2S(=O)(=O)O)cc1,-0.25
9,COc1cc(C2NC(=O)C(C#N)=C(Nc3cccc(C)c3)S2)ccc1O (stereo not drawn),0.5
10,CCOC(=O)Nc1ccc2nc(Sc3ccc(Cl)cc3)sc2c1,0.35
11,COc1ccc2c3c1OC1CC(O)C=CC31CCN(C)C2 (stereo not drawn),-0.15
12,Cc1cc(NC(=O)NC(=O)c2ccccc2NC(=O)C(C)N)ccc1Oc1ncc(Br)cn1 (stereo not drawn),1.7
13,CCCCn1cnc2c(=S)nc(N)[nH]c21,1
14,O=c1[nH]cc(Cl)cc1Cl,0.5
15,O=C(Nc1cccc(-c2ccccc2)c1)N1CCN(C(=O)Nc2cccc(-c3ccccc3)c2)CC1,-0.6
16,CC(O)(c1ccccc1)C(c1ccccc1)C1CCCCN1 (stereo not drawn),1.5
17,CC#CC#Cc1cccc(=O)o1,-1.15
18,C=C(C)CN1C(=O)C(C)S/C1=N/N=C1/SCC(=O)N1C (stereo not drawn),-0.55
19,CC1(C)N=C(N)NC(=NCCCOc2ccc([N+](=O)[O-])cc2)N1,-0.3
20,Clc1ccc(Oc2nc3c(Cl)cccc3s2)cc1Cl,0.85
21,CCc1ccc(CCN2C(=O)c3ccccc3C2=O)nc1,0.65

row,Compound,T2 sensor activation Q score
1,COC(=O)Nc1csc2c1NC(=O)CCCC2,0
2,Oc1ccc2ccccc2c1N=Nc1nccs1,0.9
3,CCOC(=O)CSc1nc2nc(Cl)c(Cl)nc2[nH]1,0.95
4,CC(=O)c1cc(O)c2ccccc2c1O,1.7
5,CC(C)C(=O)Nc1cccnc1,-0.15
6,CC(=O)Nc1ccc(S(=O)(=O)N=S(C)C)cc1,0.75
7,NC(=O)c1nnsc1-c1ccc(-c2snnc2C(N)=O)cc1,1.7
8,NS(=O)(=O)c1ccc(N=Nc2ccc(=O)[nH]c2O)cc1,-1.25
9,CC(=O)OCCN1c2ccccc2Sc2cnccc21,-0.4
10,COc1cccc(/C=C2\CCc3ccccc3C2=O)c1,-2.35
11,O=C(Nc1ccc(Br)c2ccccc12)c1ccc2ccccc2c1O,1.2
12,COc1cc(-c2ccc(NC(=O)NC3CC3)c(OC)c2)ccc1NC(=O)NC1CC1,0.3
13,O=C1OCC/C1=C\OCCCO/C=C1\CCOC1=O,-0.4
14,Cc1ccc(NC(=O)Nc2nc3ccccc3s2)cc1NC(=O)Nc1nc2ccccc2s1,-1.2
15,Cc1cc(C)n2c(C)nnc2c1,1.55
16,Nc1n[nH]c(CO)n1,1.95
17,CCOC(=O)/C(C#N)=C/c1c[nH]c2ccccc12,0.65
18,Nc1ccc(C(=O)C(=O)c2ccc(N)cc2)cc1,-1.05
19,COc1c(/C=N/NC(N)=O)c(OC)c(OC)c2c1CCO2,1.7
20,CC(=O)NC1=C/C(=C\[N+](=O)[O-])C=C1O,-0.65
21,CC1=C(C(N)=O)S(=O)(=O)c2ccccc21,1.85
